# Results reported in the supplement of paper PMC6411743.
# Protein sequences, listed by entry. Tags and fused reporters are not part of them. Lines headed by an entry give the natural chain unless they say otherwise; changes in a name come on top.
# UniProt Q6YN16: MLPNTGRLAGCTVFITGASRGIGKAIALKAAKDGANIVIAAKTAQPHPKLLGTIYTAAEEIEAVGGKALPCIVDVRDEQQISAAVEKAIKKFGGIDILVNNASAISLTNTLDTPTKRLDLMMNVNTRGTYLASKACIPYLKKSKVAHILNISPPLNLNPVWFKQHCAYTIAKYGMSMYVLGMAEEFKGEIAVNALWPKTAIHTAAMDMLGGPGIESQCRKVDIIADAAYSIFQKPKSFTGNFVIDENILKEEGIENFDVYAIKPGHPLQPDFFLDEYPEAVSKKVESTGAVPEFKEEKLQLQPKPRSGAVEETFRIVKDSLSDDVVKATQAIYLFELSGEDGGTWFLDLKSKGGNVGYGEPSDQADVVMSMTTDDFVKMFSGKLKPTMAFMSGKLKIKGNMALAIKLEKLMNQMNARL
# UniProt Q86TN4: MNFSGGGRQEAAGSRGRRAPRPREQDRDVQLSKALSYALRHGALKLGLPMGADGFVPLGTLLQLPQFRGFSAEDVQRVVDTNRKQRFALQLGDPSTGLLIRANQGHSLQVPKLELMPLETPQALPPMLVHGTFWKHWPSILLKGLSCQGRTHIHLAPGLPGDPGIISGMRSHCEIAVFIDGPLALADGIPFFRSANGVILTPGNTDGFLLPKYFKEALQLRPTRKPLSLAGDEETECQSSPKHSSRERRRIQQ
# UniProt Q75N03: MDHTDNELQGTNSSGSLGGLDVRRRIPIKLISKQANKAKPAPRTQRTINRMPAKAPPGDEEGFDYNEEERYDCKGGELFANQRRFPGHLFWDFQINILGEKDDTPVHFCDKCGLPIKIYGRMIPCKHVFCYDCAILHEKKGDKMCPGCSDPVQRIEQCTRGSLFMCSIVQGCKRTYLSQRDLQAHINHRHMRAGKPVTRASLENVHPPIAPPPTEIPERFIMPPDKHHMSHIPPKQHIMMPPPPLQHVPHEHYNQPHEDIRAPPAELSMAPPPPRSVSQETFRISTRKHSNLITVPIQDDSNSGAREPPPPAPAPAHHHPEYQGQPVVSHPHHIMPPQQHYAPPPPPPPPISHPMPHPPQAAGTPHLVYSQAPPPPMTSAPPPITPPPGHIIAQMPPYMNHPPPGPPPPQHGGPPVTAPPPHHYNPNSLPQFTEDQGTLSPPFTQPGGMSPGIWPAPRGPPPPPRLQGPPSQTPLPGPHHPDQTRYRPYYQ
# UniProt Q7RTV0, whole entry, looked up: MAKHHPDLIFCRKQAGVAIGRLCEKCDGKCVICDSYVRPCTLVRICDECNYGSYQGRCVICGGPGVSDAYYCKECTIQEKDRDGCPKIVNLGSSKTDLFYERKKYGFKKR
# UniProt Q5VWG9, whole entry: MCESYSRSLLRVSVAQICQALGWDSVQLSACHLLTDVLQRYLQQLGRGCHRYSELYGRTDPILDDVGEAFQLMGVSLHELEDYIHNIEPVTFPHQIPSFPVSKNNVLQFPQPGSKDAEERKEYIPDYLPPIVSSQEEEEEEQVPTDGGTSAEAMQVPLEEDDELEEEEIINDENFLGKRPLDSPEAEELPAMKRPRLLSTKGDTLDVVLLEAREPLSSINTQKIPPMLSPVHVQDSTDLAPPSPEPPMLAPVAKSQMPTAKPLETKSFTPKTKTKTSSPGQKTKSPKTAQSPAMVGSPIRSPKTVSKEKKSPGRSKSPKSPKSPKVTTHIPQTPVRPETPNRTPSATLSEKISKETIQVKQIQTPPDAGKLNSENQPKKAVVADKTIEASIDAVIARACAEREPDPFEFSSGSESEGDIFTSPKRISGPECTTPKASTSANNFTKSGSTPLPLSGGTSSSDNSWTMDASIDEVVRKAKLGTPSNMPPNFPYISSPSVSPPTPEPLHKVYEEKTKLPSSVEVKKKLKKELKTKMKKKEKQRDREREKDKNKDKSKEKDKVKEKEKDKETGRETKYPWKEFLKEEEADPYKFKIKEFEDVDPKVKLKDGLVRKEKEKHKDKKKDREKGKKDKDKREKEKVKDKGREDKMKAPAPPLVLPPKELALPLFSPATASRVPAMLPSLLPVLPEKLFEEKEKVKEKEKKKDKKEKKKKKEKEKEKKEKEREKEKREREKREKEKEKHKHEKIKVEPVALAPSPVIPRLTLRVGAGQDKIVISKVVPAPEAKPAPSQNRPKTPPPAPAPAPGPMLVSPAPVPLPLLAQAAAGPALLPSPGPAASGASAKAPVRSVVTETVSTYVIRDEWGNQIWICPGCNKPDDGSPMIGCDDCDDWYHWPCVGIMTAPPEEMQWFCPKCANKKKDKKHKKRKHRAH
# UniProt Q86WJ1: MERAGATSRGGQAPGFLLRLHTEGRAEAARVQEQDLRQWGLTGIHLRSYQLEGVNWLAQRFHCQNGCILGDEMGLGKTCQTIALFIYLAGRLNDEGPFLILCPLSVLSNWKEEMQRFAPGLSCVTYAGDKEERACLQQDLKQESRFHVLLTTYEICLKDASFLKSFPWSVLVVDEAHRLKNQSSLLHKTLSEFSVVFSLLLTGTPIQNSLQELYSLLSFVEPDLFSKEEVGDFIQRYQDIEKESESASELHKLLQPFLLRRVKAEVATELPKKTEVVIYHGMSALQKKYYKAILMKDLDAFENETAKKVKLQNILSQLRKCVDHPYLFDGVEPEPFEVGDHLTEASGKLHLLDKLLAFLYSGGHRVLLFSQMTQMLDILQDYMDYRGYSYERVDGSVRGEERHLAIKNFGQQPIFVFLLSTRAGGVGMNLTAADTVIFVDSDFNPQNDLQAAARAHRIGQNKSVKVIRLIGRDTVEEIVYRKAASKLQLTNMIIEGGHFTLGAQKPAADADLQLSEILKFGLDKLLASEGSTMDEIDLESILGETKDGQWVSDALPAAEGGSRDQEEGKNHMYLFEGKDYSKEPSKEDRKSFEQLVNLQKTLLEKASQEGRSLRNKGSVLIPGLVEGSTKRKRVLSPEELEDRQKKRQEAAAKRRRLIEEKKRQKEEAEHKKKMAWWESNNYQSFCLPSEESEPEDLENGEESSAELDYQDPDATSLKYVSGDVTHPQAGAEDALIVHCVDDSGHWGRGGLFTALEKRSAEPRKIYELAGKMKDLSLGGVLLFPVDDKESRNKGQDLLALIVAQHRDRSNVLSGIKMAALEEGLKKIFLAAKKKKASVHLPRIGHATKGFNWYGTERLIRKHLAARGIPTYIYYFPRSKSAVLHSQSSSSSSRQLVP
# UniProt Q7Z7K6: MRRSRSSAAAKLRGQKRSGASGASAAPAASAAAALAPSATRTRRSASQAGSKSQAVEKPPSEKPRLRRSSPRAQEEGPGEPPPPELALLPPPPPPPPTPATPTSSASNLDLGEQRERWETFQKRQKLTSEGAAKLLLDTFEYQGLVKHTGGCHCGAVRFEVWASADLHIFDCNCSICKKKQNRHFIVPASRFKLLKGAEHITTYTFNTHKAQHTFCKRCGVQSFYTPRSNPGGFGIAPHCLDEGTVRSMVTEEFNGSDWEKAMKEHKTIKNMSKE
# UniProt Q6GYQ0: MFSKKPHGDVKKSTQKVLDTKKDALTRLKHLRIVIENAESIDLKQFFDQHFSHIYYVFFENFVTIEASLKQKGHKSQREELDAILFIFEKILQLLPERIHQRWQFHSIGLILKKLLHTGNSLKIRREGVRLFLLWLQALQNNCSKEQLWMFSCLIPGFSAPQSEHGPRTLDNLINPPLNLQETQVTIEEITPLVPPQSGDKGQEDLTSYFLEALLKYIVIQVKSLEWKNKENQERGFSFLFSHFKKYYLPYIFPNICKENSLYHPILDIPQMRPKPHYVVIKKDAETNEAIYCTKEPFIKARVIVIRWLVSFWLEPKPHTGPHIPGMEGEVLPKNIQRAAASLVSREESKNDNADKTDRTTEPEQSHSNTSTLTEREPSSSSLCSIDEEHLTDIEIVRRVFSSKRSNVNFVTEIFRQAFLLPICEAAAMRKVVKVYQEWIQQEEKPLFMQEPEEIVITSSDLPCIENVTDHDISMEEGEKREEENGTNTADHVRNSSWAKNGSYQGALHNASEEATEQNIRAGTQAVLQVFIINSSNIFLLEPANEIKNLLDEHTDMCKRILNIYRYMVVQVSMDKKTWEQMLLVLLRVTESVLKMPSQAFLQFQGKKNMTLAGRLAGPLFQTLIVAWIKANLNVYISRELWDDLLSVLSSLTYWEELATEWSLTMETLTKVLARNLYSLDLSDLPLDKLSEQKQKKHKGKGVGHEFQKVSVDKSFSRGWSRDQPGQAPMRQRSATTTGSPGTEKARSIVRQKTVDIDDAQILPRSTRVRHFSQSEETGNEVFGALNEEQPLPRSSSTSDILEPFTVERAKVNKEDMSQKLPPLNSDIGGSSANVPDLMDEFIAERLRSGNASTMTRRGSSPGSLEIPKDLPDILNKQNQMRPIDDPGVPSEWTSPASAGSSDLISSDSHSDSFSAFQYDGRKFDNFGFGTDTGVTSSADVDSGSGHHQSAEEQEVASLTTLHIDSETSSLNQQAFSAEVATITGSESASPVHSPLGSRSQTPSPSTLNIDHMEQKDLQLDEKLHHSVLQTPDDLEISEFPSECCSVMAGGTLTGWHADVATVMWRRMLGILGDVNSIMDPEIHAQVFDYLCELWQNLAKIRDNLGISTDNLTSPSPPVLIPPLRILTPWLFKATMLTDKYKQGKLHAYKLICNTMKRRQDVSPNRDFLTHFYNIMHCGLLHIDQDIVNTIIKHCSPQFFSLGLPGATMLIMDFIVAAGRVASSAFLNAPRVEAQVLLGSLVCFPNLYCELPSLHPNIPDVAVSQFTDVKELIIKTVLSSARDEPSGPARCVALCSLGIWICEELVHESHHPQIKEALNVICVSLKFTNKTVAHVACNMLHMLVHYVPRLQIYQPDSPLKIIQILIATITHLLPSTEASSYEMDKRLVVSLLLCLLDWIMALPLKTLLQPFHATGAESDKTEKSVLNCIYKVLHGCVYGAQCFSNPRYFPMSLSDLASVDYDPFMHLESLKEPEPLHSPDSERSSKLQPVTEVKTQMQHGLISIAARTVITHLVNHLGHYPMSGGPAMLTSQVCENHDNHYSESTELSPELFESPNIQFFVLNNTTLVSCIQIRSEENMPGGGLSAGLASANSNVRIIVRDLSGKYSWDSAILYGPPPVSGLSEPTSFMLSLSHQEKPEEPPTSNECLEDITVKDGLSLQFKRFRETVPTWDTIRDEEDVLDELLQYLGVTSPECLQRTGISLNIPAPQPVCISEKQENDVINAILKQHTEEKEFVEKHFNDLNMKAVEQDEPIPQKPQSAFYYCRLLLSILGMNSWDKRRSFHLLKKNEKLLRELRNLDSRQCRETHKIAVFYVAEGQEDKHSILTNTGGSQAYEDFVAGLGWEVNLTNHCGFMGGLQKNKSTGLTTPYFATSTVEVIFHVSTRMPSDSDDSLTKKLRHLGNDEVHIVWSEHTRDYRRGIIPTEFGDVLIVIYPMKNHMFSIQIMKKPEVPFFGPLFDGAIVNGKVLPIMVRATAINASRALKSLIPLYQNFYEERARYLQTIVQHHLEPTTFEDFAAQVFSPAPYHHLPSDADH
# UniProt Q86SX6: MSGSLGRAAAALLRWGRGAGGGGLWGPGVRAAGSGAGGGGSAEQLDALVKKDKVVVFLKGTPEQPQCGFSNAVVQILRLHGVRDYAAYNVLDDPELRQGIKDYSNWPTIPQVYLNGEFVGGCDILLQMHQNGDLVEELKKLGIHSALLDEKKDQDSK
# UniProt Q6P9B9, whole entry: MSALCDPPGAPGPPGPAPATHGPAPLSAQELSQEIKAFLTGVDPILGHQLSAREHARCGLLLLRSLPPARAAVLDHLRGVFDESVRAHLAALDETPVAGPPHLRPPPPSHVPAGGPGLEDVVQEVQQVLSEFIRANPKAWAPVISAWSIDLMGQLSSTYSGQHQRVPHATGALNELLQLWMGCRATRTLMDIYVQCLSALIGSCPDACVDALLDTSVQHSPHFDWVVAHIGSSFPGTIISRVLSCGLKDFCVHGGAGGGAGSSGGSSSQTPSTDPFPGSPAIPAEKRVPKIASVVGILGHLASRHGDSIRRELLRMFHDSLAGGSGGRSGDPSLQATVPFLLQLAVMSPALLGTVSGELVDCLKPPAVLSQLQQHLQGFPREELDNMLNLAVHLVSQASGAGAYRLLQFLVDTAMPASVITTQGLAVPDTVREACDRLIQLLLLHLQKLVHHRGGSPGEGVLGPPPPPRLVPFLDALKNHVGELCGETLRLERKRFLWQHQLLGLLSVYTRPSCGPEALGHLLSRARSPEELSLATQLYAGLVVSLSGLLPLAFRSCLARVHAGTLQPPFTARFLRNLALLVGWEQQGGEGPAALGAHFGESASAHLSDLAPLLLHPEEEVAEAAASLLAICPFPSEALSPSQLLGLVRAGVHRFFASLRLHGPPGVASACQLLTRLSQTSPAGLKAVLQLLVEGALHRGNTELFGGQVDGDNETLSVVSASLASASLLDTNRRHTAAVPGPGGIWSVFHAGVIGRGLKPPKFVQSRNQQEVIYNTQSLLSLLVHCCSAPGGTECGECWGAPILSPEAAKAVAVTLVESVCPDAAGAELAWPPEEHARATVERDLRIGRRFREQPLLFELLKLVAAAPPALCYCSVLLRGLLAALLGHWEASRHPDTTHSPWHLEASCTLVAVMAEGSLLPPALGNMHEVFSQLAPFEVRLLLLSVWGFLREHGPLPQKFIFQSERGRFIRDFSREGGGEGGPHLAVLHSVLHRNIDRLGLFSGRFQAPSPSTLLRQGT
# ± gives the standard deviation of the averaged measurements. The list shows a part of the results.
# Compound: Nc1nc2c(ncn2[C@@H]2O[C@H](COP(=O)(O)OP(=O)(O)OP(=O)(O)O)[C@@H](O)[C@H]2O)c(=O)[nH]1 [guanosine triphosphate]
# Test: NP40-soluble protein abundance relative to vehicle (solubility fold change) (ratio); higher = more soluble protein in presence of GTP
# How it was run: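 Jurkat crude lysate (Dounce-homogenised) was treated with eight concentrations from 0.1 to 10 mM for 10 min at room temperature, then 3 min at 37 °C. It was solubilised with 0.8% NP40 and benzonase (60 min, 4 °C) and ultracentrifuged, and the supernatant was TMT-labelled for LC-MS/MS. Intensities were vsn-normalised, and the value is the fold change against the NP40-processed vehicle per replicate, from three independent experiments.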
Target,NP40-soluble protein abundance (concentration: 0.1mM),NP40-soluble protein abundance (concentration: 0.5mM),NP40-soluble protein abundance (concentration: 1mM),NP40-soluble protein abundance (concentration: 2mM),NP40-soluble protein abundance (concentration: 4mM),NP40-soluble protein abundance (concentration: 6mM),NP40-soluble protein abundance (concentration: 8mM),NP40-soluble protein abundance (concentration: 10mM)
FBXO42 (UniProt Q6P3S6),1.23 ± 0.23,1.08 ± 0.082,1.06 ± 0.082,1.12 ± 0.2,1.05 ± 0.075,1.06 ± 0.11,0.992 ± 0.12,1.04 ± 0.12
DNMBP (UniProt Q6XZF7),1.09 ± 0.044,1.02 ± 0.052,1.06 ± 0.031,1.02 ± 0.044,1.03 ± 0.069,1.01 ± 0.071,1.04 ± 0.022,0.947 ± 0.067
SETD3 (UniProt Q86TU7),1.05 ± 0.028,1.03 ± 0.018,0.976 ± 0.04,0.992 ± 0.066,0.977 ± 0.075,0.963 ± 0.02,0.995 ± 0.03,0.971 ± 0.054
HSDL2 (UniProt Q6YN16),0.936 ± 0.082,0.954 ± 0.061,0.922 ± 0.06,0.905 ± 0.071,0.889 ± 0.066,0.91 ± 0.079,0.898 ± 0.071,0.883 ± 0.073
AHDC1 (UniProt Q5TGY3),0.984 ± 0.082,1.01 ± 0.14,1.01 ± 0.12,1.06 ± 0.11,1.06 ± 0.063,1.06 ± 0.088,1.08 ± 0.041,1.06 ± 0.11
ATAD2 (UniProt Q6PL18),1.15 ± 0.052,1.2 ± 0.036,1.29 ± 0.075,1.22 ± 0.076,1.21 ± 0.12,1.17 ± 0.061,1.17 ± 0.14,1.21 ± 0.15
UniProt Q86TN4 and related entries,1.08 ± 0.042,1.01 ± 0.026,1.07 ± 0.045,1.06 ± 0.034,1.09 ± 0.038,1.07 ± 0.045,1.11 ± 0.035,1.1 ± 0.034
UniProt Q75N03 and related entries,0.988 ± 0.15,1.03 ± 0.11,1.07 ± 0.057,1.09 ± 0.11,0.983 ± 0.097,1.05 ± 0.097,0.986 ± 0.075,1.09 ± 0.11
NADSYN1 (UniProt Q6IA69),0.95 ± 0.07,1.02 ± 0.083,1.05 ± 0.041,1 ± 0.027,1.01 ± 0.039,0.982 ± 0.034,0.956 ± 0.072,0.97 ± 0.037
RAB12 (UniProt Q6IQ22),1.04 ± 0.09,0.983 ± 0.09,0.938 ± 0.12,0.968 ± 0.068,0.924 ± 0.15,0.919 ± 0.043,0.894 ± 0.087,0.888 ± 0.12
UniProt Q7RTV0,1.06 ± 0.088,1.11 ± 0.1,1.09 ± 0.094,1.07 ± 0.1,1.1 ± 0.12,1.16 ± 0.096,1.19 ± 0.13,1.19 ± 0.16
UniProt Q86W50,0.9903 ± 0.0097,1.006 ± 0.009,0.955 ± 0.042,0.971 ± 0.025,0.934 ± 0.047,0.936 ± 0.05,0.91 ± 0.061,0.929 ± 0.056
LARP1 (UniProt Q6PKG0),1.02 ± 0.039,1.11 ± 0.06,1.32 ± 0.1,1.46 ± 0.11,1.66 ± 0.16,1.78 ± 0.17,1.88 ± 0.22,1.99 ± 0.22
SAMD1 (UniProt Q6SPF0),0.917 ± 0.1,0.899 ± 0.18,1.09 ± 0.12,1.02 ± 0.18,1.01 ± 0.098,1.06 ± 0.18,1.09 ± 0.069,1.11 ± 0.026
TAF3 (UniProt Q5VWG9),1.01 ± 0.018,0.9888 ± 0.0024,0.961 ± 0.043,0.958 ± 0.02,0.954 ± 0.033,0.969 ± 0.015,0.932 ± 0.014,1 ± 0.026
UniProt Q6P2H3 and related entries,0.964 ± 0.015,0.96 ± 0.1,1.06 ± 0.065,1.06 ± 0.1,1.03 ± 0.069,1.03 ± 0.07,1.11 ± 0.016,1.13 ± 0.047
RABEPK (UniProt Q7Z6M1),1 ± 0.048,0.966 ± 0.036,1.01 ± 0.084,0.936 ± 0.063,0.968 ± 0.069,0.922 ± 0.1,0.936 ± 0.058,0.916 ± 0.079
SASS6 (UniProt Q6UVJ0),1.02 ± 0.052,0.941 ± 0.042,1.02 ± 0.032,1 ± 0.058,0.9773 ± 0.007,0.963 ± 0.051,1.002 ± 0.0092,0.956 ± 0.023
UniProt Q86WJ1 and related entries,0.992 ± 0.051,0.998 ± 0.052,0.931 ± 0.083,0.913 ± 0.053,0.913 ± 0.069,0.899 ± 0.058,0.877 ± 0.084,0.842 ± 0.076
UniProt Q7Z7K6 and related entries,1.09 ± 0.035,1.08 ± 0.071,1.16 ± 0.013,1.37 ± 0.071,1.69 ± 0.2,2.01 ± 0.27,2.24 ± 0.32,3.21 ± 0.43
UniProt Q6GYQ0 and related entries,1.07 ± 0.048,1.08 ± 0.064,1.09 ± 0.069,1.07 ± 0.066,1.12 ± 0.13,1.06 ± 0.11,1.12 ± 0.13,1.07 ± 0.11
UniProt Q6KC79 and related entries,1.01 ± 0.021,1.042 ± 0.009,1.04 ± 0.039,1.1 ± 0.043,1.1 ± 0.053,1.15 ± 0.093,1.16 ± 0.1,1.15 ± 0.091
UniProt Q7Z434 and related entries,0.916 ± 0.047,0.936 ± 0.076,0.959 ± 0.058,0.902 ± 0.093,0.909 ± 0.12,0.897 ± 0.1,0.914 ± 0.082,0.905 ± 0.12
GLRX5 (UniProt Q86SX6),0.933 ± 0.089,0.877 ± 0.14,1.01 ± 0.14,1.07 ± 0.21,1.11 ± 0.32,0.973 ± 0.19,1.01 ± 0.19,1.16 ± 0.23
UniProt Q6R327 and related entries,1.05 ± 0.061,1.1 ± 0.072,1.17 ± 0.033,1.12 ± 0.12,1.18 ± 0.059,1.18 ± 0.073,1.19 ± 0.089,1.1 ± 0.1
UniProt Q7L592,1.04 ± 0.043,0.992 ± 0.05,0.969 ± 0.071,0.867 ± 0.025,0.923 ± 0.062,0.942 ± 0.088,0.86 ± 0.078,0.855 ± 0.095
INTS5 (UniProt Q6P9B9),1.05 ± 0.046,1.1 ± 0.039,1.14 ± 0.052,1.2 ± 0.12,1.21 ± 0.17,1.22 ± 0.18,1.23 ± 0.15,1.18 ± 0.11
UniProt Q6ZMI0 and related entries,0.995 ± 0.052,0.969 ± 0.027,1.02 ± 0.027,0.992 ± 0.025,0.973 ± 0.011,0.961 ± 0.051,0.967 ± 0.094,0.988 ± 0.033

# Full records from above. Values in the order: NP40-soluble protein abundance (concentration: 0.1mM) | NP40-soluble protein abundance (concentration: 0.5mM) | NP40-soluble protein abundance (concentration: 1mM) | NP40-soluble protein abundance (concentration: 2mM) | NP40-soluble protein abundance (concentration: 4mM) | NP40-soluble protein abundance (concentration: 6mM) | NP40-soluble protein abundance (concentration: 8mM) | NP40-soluble protein abundance (concentration: 10mM)
# ATAD2 (UniProt Q6PL18) reads 1.15 ± 0.052 | 1.2 ± 0.036 | 1.29 ± 0.075 | 1.22 ± 0.076 | 1.21 ± 0.12 | 1.17 ± 0.061 | 1.17 ± 0.14 | 1.21 ± 0.15
# SETD3 (UniProt Q86TU7) reads 1.05 ± 0.028 | 1.03 ± 0.018 | 0.976 ± 0.04 | 0.992 ± 0.066 | 0.977 ± 0.075 | 0.963 ± 0.02 | 0.995 ± 0.03 | 0.971 ± 0.054
